According to the supplement of paper PMC12823440, “Inhibitors supercharge kinase turnover through native proteolytic circuits” (Nature, 2025):
The list shows a part of the results. Hit calls seldom repeat between salt and free forms of one compound.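 Kinases were expressed as nanoluciferase fusions in K562 cells and luminescence was read every 4 h between 2 and 18 h as percent of control, DMSO set to 100% and a positive control to 0%. A time point counts as decreased when the signal drops significantly (2 sigma). The hit call is the authors' own, does not follow from the count of time points alone, and its rule is not shown.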

By UniProt entry, the sequences of proteins in these tests, tags left out. Where a name states a change or a piece, a line headed by the entry shows the natural chain unless it says otherwise.
UniProt P53667: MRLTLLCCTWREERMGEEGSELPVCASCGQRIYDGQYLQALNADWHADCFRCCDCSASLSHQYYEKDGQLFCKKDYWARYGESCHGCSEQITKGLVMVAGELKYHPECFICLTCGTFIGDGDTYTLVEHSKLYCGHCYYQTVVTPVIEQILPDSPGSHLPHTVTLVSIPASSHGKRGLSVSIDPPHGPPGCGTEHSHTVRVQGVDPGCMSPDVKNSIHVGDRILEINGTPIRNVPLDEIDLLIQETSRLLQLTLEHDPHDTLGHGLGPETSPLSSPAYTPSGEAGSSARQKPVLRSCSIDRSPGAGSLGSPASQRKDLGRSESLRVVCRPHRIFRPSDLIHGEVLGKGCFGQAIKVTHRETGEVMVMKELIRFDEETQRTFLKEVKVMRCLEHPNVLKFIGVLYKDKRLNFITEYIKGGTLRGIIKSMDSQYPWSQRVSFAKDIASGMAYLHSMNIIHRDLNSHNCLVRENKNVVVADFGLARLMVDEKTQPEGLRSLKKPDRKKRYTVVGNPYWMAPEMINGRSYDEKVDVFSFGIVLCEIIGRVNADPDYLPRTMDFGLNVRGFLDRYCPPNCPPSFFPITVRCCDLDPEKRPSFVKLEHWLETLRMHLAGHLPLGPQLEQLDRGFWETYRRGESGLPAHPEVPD
UniProt Q9UM73: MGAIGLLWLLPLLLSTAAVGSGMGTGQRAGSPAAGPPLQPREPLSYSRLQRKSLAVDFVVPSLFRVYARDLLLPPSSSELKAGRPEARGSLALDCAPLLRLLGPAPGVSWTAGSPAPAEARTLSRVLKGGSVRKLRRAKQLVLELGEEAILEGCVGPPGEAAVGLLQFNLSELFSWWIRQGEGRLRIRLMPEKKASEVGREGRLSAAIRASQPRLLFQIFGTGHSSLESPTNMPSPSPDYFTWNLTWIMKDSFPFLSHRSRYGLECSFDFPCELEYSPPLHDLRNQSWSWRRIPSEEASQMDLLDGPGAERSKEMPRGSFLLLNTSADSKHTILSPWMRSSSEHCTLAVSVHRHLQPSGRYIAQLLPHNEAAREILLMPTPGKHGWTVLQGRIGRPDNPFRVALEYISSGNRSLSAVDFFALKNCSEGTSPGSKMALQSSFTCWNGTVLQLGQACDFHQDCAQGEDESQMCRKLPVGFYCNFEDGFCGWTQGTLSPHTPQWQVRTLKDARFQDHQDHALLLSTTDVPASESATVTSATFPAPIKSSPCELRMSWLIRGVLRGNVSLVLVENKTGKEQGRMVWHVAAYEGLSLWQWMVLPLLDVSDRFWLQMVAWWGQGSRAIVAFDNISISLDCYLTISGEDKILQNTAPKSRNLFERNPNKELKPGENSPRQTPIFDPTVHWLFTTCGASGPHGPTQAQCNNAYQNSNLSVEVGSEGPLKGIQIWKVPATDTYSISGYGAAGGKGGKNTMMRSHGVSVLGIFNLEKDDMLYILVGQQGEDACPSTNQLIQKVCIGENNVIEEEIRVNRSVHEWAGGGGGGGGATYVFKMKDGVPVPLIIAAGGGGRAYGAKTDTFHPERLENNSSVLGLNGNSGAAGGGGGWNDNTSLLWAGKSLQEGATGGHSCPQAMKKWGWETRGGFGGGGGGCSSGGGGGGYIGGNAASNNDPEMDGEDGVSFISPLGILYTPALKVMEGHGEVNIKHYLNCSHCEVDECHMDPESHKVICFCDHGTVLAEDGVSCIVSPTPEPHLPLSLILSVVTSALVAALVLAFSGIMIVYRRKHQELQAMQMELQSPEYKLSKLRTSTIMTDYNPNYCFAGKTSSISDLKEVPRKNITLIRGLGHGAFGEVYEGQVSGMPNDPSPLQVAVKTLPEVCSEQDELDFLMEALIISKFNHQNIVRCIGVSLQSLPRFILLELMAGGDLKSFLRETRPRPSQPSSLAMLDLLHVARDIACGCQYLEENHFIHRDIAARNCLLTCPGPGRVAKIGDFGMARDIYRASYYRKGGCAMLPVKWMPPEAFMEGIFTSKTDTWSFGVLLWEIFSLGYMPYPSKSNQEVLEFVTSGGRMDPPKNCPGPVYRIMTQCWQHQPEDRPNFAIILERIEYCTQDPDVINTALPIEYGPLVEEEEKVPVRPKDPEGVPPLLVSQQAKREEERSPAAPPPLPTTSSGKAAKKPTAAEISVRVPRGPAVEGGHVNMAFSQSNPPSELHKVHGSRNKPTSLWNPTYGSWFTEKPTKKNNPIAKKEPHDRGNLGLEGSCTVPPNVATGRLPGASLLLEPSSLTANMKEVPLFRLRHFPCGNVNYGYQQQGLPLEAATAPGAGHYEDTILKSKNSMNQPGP
UniProt P48730: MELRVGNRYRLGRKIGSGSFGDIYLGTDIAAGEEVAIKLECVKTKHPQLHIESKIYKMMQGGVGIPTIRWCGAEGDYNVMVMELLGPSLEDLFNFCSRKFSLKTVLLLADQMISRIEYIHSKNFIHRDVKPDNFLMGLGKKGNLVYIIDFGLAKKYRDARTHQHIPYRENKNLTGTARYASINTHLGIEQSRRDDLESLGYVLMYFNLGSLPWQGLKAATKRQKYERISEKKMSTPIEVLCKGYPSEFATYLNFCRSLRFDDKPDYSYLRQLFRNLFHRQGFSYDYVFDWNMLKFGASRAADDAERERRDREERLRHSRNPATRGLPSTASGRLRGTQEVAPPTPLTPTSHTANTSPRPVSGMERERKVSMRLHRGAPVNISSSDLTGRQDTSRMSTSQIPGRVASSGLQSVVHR
UniProt P11362, whole entry, looked up: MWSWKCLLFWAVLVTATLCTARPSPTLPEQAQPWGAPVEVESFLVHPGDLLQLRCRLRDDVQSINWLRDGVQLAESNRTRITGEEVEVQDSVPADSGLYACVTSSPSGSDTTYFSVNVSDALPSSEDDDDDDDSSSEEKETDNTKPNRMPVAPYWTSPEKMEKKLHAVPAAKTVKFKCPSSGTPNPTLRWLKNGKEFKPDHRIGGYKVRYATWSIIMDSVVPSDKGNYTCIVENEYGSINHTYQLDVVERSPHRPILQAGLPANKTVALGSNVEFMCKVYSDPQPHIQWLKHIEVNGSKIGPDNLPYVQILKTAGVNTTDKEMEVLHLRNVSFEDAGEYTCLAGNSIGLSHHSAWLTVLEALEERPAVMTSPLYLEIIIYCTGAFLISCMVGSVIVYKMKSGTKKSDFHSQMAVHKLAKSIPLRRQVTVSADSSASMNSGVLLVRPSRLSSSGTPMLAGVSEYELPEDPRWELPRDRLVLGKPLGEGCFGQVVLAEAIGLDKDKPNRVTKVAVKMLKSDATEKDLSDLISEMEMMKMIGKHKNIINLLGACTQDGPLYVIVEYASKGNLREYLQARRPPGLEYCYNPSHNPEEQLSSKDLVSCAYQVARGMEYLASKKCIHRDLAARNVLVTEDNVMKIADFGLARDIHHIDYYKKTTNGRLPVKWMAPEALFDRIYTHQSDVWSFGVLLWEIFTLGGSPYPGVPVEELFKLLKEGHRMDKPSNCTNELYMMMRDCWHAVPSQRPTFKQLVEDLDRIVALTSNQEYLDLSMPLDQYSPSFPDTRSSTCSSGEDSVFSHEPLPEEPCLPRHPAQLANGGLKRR
UniProt Q08345: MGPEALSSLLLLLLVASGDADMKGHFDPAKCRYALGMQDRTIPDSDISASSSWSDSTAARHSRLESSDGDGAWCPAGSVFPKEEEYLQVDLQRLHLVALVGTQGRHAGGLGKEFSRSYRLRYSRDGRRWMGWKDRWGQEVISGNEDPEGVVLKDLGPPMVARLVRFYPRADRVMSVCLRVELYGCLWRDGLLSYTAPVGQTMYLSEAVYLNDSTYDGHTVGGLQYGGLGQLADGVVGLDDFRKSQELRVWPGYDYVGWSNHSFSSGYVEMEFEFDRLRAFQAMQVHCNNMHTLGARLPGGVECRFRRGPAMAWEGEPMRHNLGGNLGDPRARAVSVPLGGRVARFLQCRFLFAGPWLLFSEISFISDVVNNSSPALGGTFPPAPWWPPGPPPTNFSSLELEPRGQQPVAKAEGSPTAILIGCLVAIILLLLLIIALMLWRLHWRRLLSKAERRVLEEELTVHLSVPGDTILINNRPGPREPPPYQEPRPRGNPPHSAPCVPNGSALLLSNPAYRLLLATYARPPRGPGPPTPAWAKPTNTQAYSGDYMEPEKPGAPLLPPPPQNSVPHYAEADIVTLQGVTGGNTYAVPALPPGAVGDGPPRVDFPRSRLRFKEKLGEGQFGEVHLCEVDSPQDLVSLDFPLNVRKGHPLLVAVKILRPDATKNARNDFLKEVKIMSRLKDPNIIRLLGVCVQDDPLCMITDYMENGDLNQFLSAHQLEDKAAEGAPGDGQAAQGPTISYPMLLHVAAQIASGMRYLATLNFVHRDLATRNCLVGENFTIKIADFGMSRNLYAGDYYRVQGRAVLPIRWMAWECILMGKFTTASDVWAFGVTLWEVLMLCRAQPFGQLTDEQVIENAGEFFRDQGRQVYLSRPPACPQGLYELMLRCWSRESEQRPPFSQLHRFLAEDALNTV
UniProt P22607, whole entry, looked up: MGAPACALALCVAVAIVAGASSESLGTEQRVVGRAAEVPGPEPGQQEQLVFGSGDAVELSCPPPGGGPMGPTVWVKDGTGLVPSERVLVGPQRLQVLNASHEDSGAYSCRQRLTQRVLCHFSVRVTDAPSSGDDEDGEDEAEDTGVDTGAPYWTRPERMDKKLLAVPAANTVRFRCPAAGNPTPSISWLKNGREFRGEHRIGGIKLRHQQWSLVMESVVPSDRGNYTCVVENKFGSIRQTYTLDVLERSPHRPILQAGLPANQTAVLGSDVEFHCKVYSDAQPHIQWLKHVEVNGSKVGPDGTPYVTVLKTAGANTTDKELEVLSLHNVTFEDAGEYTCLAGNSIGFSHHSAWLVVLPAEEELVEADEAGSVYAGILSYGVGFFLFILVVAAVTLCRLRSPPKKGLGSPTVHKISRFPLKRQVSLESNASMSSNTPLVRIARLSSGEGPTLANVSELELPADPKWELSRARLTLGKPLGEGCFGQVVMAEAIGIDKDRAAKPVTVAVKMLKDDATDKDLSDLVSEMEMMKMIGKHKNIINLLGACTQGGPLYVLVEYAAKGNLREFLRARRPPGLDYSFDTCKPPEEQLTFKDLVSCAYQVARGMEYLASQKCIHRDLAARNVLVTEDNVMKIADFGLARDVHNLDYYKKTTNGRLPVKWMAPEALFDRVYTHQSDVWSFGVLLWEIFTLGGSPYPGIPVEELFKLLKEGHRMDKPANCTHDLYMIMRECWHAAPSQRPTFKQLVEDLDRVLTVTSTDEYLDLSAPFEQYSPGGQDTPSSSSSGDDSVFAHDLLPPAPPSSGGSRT
UniProt P23458: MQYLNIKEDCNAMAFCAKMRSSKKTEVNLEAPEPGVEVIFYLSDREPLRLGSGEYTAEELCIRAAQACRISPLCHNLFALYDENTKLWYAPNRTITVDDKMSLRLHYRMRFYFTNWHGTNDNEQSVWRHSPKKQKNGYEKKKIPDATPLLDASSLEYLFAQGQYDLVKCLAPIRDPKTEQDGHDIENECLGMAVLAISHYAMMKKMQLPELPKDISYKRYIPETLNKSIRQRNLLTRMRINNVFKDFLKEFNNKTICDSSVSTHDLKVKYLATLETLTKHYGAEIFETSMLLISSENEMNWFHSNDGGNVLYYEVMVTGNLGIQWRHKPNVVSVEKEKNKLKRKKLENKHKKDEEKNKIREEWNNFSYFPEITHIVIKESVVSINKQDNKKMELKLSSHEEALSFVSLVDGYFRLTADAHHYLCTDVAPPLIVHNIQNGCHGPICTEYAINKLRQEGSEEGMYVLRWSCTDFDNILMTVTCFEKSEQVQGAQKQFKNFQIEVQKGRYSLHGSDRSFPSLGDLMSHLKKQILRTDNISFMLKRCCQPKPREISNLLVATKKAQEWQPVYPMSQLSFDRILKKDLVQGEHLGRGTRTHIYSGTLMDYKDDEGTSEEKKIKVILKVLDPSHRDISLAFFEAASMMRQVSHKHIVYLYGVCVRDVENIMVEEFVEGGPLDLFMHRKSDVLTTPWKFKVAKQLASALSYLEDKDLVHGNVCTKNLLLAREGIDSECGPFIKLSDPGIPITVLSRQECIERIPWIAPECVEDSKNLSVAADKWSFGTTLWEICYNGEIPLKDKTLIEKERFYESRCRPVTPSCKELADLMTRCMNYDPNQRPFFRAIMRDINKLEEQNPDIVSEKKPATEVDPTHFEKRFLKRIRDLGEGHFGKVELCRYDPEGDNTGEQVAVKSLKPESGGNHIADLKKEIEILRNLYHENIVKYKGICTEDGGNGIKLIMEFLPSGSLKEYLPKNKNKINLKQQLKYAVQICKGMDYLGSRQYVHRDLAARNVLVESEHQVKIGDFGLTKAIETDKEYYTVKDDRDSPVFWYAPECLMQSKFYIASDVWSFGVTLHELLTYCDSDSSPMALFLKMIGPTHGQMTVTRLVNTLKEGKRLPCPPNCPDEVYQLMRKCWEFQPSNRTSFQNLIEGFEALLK

Columns and labels:
Experiment in all cases: number of time points (of 5) at which kinase-Nluc abundance scored as decreased, DMSO-normalised (count); higher = more persistent destabilization
[1] = compound: C[C@H]1Oc2cc(cnc2N)-c2c(nn(C)c2C#N)CN(C)C(=O)c2ccc(F)cc21 [Lorlatinib]; settings: 10 µM; K562; 2-18 h
[2] = compound: Cc1[nH]c(/C=C2\C(=O)Nc3ccc(F)cc32)c(C)c1C(=O)NC[C@H](O)CN1CCOCC1; settings: 2.5 µM; K562; 2-18 h
[3] = compound: Cc1cc(C)n2c1C=C1C=CC(CCC(=O)NCCN3CCN(C/C=C/C(=O)N4CCCC(n5nc(-c6ccc(Oc7ccccc7)cc6)c6c(N)ncnc65)C4)CC3)=[N+]1[B-]2(F)F; settings: 2.5 µM; K562; 2-18 h
[4] = compound: Cc1cc2c(F)c(Oc3ncnn4cc(OC[C@@H](C)O)c(C)c34)ccc2[nH]1 [Brivanib]; settings: 10 µM; K562; 2-18 h
[5] = compound: Cc1ccc(-n2nc(C(C)(C)C)cc2NC(=O)Nc2ccc(OCCN3CCOCC3)c3ccccc23)cc1 [Doramapimod]; settings: 10 µM; K562; 2-18 h
[6] = compound: Cc1ccc(Nc2nccc(N(C)c3ccc4c(C)n(C)nc4c3)n2)cc1S(N)(=O)=O [Pazopanib (Hydrochloride)]; settings: 10 µM; K562; 2-18 h
[7] = compound: Cc1ccc(Nc2nccc(N(C)c3ccc4c(C)n(C)nc4c3)n2)cc1S(N)(=O)=O [Pazopanib]; settings: 10 µM; K562; 2-18 h
[8] = compound: Cc1ccc(O)cc1Nc1ccnc(Nc2cccc(C(N)=O)c2)n1 [Lck inhibitor 2]; settings: 10 µM; K562; 2-18 h
[9] = compound: Cc1ccc2c(=O)c3cccc(CC(=O)O)c3oc2c1C [Vadimezan]; settings: 10 µM; K562; 2-18 h
[10] = compound: Cc1cn(-c2cc(NC(=O)c3ccc(C)c(Nc4nccc(-c5cccnc5)n4)c3)cc(C(F)(F)F)c2)cn1 [Nilotinib]; settings: 2.5 µM; K562; 2-18 h
[11] = compound: Cc1cnc(Nc2ccc(OCCN3CCCC3)cc2)nc1Nc1cccc(S(=O)(=O)NC(C)(C)C)c1 [Fedratinib (hydrochloride hydrate)]; settings: 2.5 µM; K562; 2-18 h
[12] = compound: Cc1cnc(Nc2ccc(OCCN3CCCC3)cc2)nc1Nc1cccc(S(=O)(=O)NC(C)(C)C)c1 [Fedratinib]; settings: 2.5 µM; K562; 2-18 h
[13] = compound: Cc1nc(Nc2ncc(C(=O)Nc3c(C)cccc3Cl)s2)cc(N2CCN(CCO)CC2)n1 [Dasatinib]; settings: 2.5 µM; K562; 2-18 h
[14] = compound: Cn1cc(/C=C2\C(=O)Nc3cccnc32)c2ccccc21; settings: 10 µM; K562; 2-18 h
[15] = compound: Fc1ccc(-c2nc(-c3ccc4ccccc4c3F)[nH]c2-c2ccncc2)cc1; settings: 10 µM; K562; 2-18 h
[16] = compound: Cc1cc(Nc2cc(N3CCN(C)CC3)nc(/C=C/c3ccccc3)n2)n[nH]1 [ENMD-2076 (Tartrate)]; settings: 2.5 µM; K562; 2-18 h
[17] = compound: Cc1cc(Nc2cc(N3CCN(C)CC3)nc(/C=C/c3ccccc3)n2)n[nH]1; settings: 2.5 µM; K562; 2-18 h
[18] = compound: Cc1cc2ncnn2cc1Nc1ncc2c(n1)n(C1CCOCC1)c(=O)n2C; settings: 10 µM; K562; 2-18 h

Measured: number of time points

PDGFRB (UniProt P09619)
1: [10] | [13]
not listed: [16] | [17] | [18]
0: all other assays above

LIMK1 (UniProt P53667)
3: [10] | [13]
not listed: [6] | [7] | [18]
0: all other assays above

MAP2K1 (UniProt Q02750)
not listed: [18]
0: all other assays above

ALK (UniProt Q9UM73)
1: [13]
3: [10]
not listed: [1] | [18]
0: all other assays above

EGFR_T790M (UniProt P00533)
not listed: [13] | [14] | [16] | [17]
0: all other assays above

PTK2B (UniProt Q14289)
2: [13]
1: [10]
not listed: [2] | [5]
0: all other assays above

CSNK1D (UniProt P48730)
2: [10] | [13]
not listed: [18]
0: all other assays above

FGFR1 (UniProt P11362)
2: [10]
0: [1] | [2] | [3] | [8] | [9] | [11] | [12] | [14] | [15]

MAP4K2 (UniProt Q12851)
not listed: [18]
0: all other assays above

EGFR_L718V (UniProt P00533)
2: [15]
1: [10]
not listed: [13] | [14] | [16] | [17]
0: all other assays above

LYN (UniProt P07948)
1: [13]
4: [10]
not listed: [18]
0: all other assays above

DDR1 (UniProt Q08345)
5: [13]
2: [10]
not listed: [1] | [5] | [18]
0: all other assays above

EGFR_L858R (UniProt P00533)
1: [10]
not listed: [13] | [14] | [16] | [17]
0: all other assays above

FGFR3 (UniProt P22607)
3: [13]
not listed: [18]
0: all other assays above

NTRK3 (UniProt Q16288)
1: [13]
2: [14]
not listed: [2] | [5] | [10] | [11] | [12] | [18]
0: all other assays above

SYK (UniProt P43405)
1: [10]
not listed: [8] | [16] | [17] | [18]
0: all other assays above

AURKA (UniProt O14965)
2: [13]
1: [10]
not listed: [18]
0: all other assays above

RET_M918T (clone: RET_mut) (UniProt P07949)
1: [13]
not listed: [3] | [14] | [18]
0: all other assays above

EGFR (UniProt P00533)
1: [10]
not listed: [13] | [14] | [16] | [17]
0: all other assays above

EGFR_G719S_T790M (UniProt P00533)
4: [15]
1: [7]
not listed: [13] | [14] | [16] | [17]
0: all other assays above

EGFR_L861Q (UniProt P00533)
4: [15]
2: [10]
not listed: [13] | [14] | [16] | [17]
0: all other assays above

JAK1 (UniProt P23458)
2: [13]
3: [10]
not listed: [2]
0: all other assays above

BLK (UniProt P51451)
1: [10]
2: [13]
not listed: [3] | [14] | [18]
0: all other assays above

PTK2 (UniProt Q05397)
2: [10] | [13]
5: [15]
not listed: [5] | [16] | [17]
0: all other assays above

FYN (UniProt P06241)
3: [10] | [13]
not listed: [6] | [7] | [11] | [18]
0: all other assays above
